In doi:10.1101/2025.07.25.666749:

How the values were obtained:
Assay in all cases: proximity labelling
[1] = biological target: T1, UltraID_ZFP36L1 (UltraID fused to the N-terminus of ZFP36L1) (UniProt Q07352)
T1 sequence: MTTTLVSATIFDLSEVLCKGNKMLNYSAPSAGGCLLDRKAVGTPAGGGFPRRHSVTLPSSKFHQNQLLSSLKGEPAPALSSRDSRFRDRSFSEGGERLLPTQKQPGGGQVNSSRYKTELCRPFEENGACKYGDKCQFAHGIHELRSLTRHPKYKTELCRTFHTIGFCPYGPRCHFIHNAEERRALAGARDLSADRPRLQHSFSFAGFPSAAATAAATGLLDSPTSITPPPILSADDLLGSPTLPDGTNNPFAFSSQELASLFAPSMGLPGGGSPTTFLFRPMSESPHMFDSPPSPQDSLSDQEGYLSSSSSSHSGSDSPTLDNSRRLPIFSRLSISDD

[2] = biological target: T1, UltraID_ZFP36L1 (UltraID fused to the N-terminus of ZFP36L1); remark: listed apart in the source
[3] = biological target: T1, UltraID_ZFP36L1 (UltraID fused to the N-terminus of ZFP36L1); remark: listed apart in the source

Molecule: UBAP2L (from UniProt Q14157 1-1087)
- binding [1]: binds
- binding [2]: binds

Molecule: TNRC6B (from UniProt Q9UPQ9 1-1833)
- binding [2]: binds

Molecule: YBX1 (from UniProt P67809 1-324)
- binding [1]: binds
- binding [2]: binds

Molecule: TNRC6C (from UniProt Q9HCJ0 1-1936)
- binding [1]: binds
- binding [2]: binds

Molecule: TNRC6A (from UniProt Q8NDV7 1-1962)
- binding [2]: binds

Molecule: PUM1 (from UniProt Q14671 1-1186)
- binding [1]: binds
- binding [2]: binds

B1: PATL1 (protein, UniProt Q86TB9 1-770)
chain: MFRYESLEDCPLDEDEDAFQGLGEEDEEIDQFNDDTFGSGAVDDDWQEAHERLAELEEKLPVAVNEQTGNGERDEMDLLGDHEENLAERLSKMVIENELEDPAIMRAVQTRPVLQPQPGSLNSSIWDGSEVLRRIRGPLLAQEMPTVSVLEYALPQRPPQGPEDDRDLSERALPRRSTSPIIGSPPVRAVPIGTPPKQMAVPSFTQQILCPKPVHVRPPMPPRYPAPYGERMSPNQLCSVPNSSLLGHPFPPSVPPVLSPLQRAQLLGGAQLQPGRMSPSQFARVPGFVGSPLAAMNPKLLQGRVGQMLPPAPGFRAFFSAPPSATPPPQQHPPGPGPHLQNLRSQAPMFRPDTTHLHPQHRRLLHQRQQQNRSQHRNLNGAGDRGSHRSSHQDHLRKDPYANLMLQREKDWVSKIQMMQLQSTDPYLDDFYYQNYFEKLEKLSAAEEIQGDGPKKERTKLITPQVAKLEHAYKPVQFEGSLGKLTVSSVNNPRKMIDAVVTSRSEDDETKEKQVRDKRRKTLVIIEKTYSLLLDVEDYERRYLLSLEEERPALMDDRKHKICSMYDNLRGKLPGQERPSDDHFVQIMCIRKGKRMVARILPFLSTEQAADILMTTARNLPFLIKKDAQDEVLPCLLSPFSLLLYHLPSVSITSLLRQLMNLPQSAATPALSNPHLTAVLQNKFGLSLLLILLSRGEDLQSSDPATESTQNNQWTEVMFMATRELLRIPQAALAKPISIPTNLVSLFSRYVDRQKLNLLETKLQLVQGIR
- binding [3]: binds
- binding [2]: binds

B2: ATXN2L (protein, UniProt Q8WWM7 1-1075)
chain: MLKPQPLQQPSQPQQPPPTQQAVARRPPGGTSPPNGGLPGPLATSAAPPGPPAAASPCLGPVAAAGSGLRRGAEGILAPQPPPPQQHQERPGAAAIGSARGQSTGKGPPQSPVFEGVYNNSRMLHFLTAVVGSTCDVKVKNGTTYEGIFKTLSSKFELAVDAVHRKASEPAGGPRREDIVDTMVFKPSDVMLVHFRNVDFNYATKDKFTDSAIAMNSKVNGEHKEKVLQRWEGGDSNSDDYDLESDMSNGWDPNEMFKFNEENYGVKTTYDSSLSSYTVPLEKDNSEEFRQRELRAAQLAREIESSPQYRLRIAMENDDGRTEEEKHSAVQRQGSGRESPSLASREGKYIPLPQRVREGPRGGVRCSSSRGGRPGLSSLPPRGPHHLDNSSPGPGSEARGINGGPSRMSPKAQRPLRGAKTLSSPSNRPSGETSVPPPPAVGRMYPPRSPKSAAPAPISASCPEPPIGSAVPTSSASIPVTSSVSDPGVGSISPASPKISLAPTDVKELSTKEPGRTLEPQELARIAGKVPGLQNEQKRFQLEELRKFGAQFKLQPSSSPENSLDPFPPRILKEEPKGKEKEVDGLLTSEPMGSPVSSKTESVSDKEDKPPLAPSGGTEGPEQPPPPCPSQTGSPPVGLIKGEDKDEGPVAEQVKKSTLNPNAKEFNPTKPLLSVNKSTSTPTSPGPRTHSTPSIPVLTAGQSGLYSPQYISYIPQIHMGPAVQAPQMYPYPVSNSVPGQQGKYRGAKGSLPPQRSDQHQPASAPPMMQAAAAAGPPLVAATPYSSYIPYNPQQFPGQPAMMQPMAHYPSQPVFAPMLQSNPRMLTSGSHPQAIVSSSTPQYPSAEQPTPQALYATVHQSYPHHATQLHAHQPQPATTPTGSQPQSQHAAPSPVQHQAGQAPHLGSGQPQQNLYHPGALTGTPPSLPPGPSAQSPQSSFPQPAAVYAIHHQQLPHGFTNMAHVTQAHVQTGITAAPPPHPGAPHPPQVMLLHPPQSHGGPPQGAVPQSGVPALSASTPSPYPYIGHPQGEQPGQAPGFPGGADDRIREFSLAGGIWHGRAEGLQVGQDARVLGGE
- binding [3]: binds
- binding [2]: binds

B3: CSTF2 (protein, UniProt P33240 1-577)
chain: MAGLTVRDPAVDRSLRSVFVGNIPYEATEEQLKDIFSEVGPVVSFRLVYDRETGKPKGYGFCEYQDQETALSAMRNLNGREFSGRALRVDNAASEKNKEELKSLGTGAPVIESPYGETISPEDAPESISKAVASLPPEQMFELMKQMKLCVQNSPQEARNMLLQNPQLAYALLQAQVVMRIVDPEIALKILHRQTNIPTLIAGNPQPVHGAGPGSGSNVSMNQQNPQAPQAQSLGGMHVNGAPPLMQASMQGGVPAPGQMPAAVTGPGPGSLAPGGGMQAQVGMPGSGPVSMERGQVPMQDPRAAMQRGSLPANVPTPRGLLGDAPNDPRGGTLLSVTGEVEPRGYLGPPHQGPPMHHVPGHESRGPPPHELRGGPLPEPRPLMAEPRGPMLDQRGPPLDGRGGRDPRGIDARGMEARAMEARGLDARGLEARAMEARAMEARAMEARAMEARAMEVRGMEARGMDTRGPVPGPRGPIPSGMQGPSPINMGAVVPQGSRQVPVMQGTGMQGASIQGGSQPGGFSPGQNQVTPQDHEKAALIMQVLQLTADQIAMLPPEQRQSILILKEQIQKSTGAP
- binding [3]: binds
- binding [2]: binds

B4: SIRT2 (protein, UniProt Q8IXJ6 1-389)
chain: MAEPDPSHPLETQAGKVQEAQDSDSDSEGGAAGGEADMDFLRNLFSQTLSLGSQKERLLDELTLEGVARYMQSERCRRVICLVGAGISTSAGIPDFRSPSTGLYDNLEKYHLPYPEAIFEISYFKKHPEPFFALAKELYPGQFKPTICHYFMRLLKDKGLLLRCYTQNIDTLERIAGLEQEDLVEAHGTFYTSHCVSASCRHEYPLSWMKEKIFSEVTPKCEDCQSLVKPDIVFFGESLPARFFSCMQSDFLKVDLLLVMGTSLQVQPFASLISKAPLSTPRLLINKEKAGQSDPFLGMIMGLGGGMDFDSKKAYRDVAWLGECDQGCLALAELLGWKKELEDLVRREHASIDAQSGAGVPNPSTSASPKKSPPPAKDEARTTEREKPQ
- binding [3]: binds

B5: UPF1 (protein, UniProt Q92900 1-1129)
chain: MSVEAYGPSSQTLTFLDTEEAELLGADTQGSEFEFTDFTLPSQTQTPPGGPGGPGGGGAGGPGGAGAGAAAGQLDAQVGPEGILQNGAVDDSVAKTSQLLAELNFEEDEEDTYYTKDLPIHACSYCGIHDPACVVYCNTSKKWFCNGRGNTSGSHIVNHLVRAKCKEVTLHKDGPLGETVLECYNCGCRNVFLLGFIPAKADSVVVLLCRQPCASQSSLKDINWDSSQWQPLIQDRCFLSWLVKIPSEQEQLRARQITAQQINKLEELWKENPSATLEDLEKPGVDEEPQHVLLRYEDAYQYQNIFGPLVKLEADYDKKLKESQTQDNITVRWDLGLNKKRIAYFTLPKTDSGNEDLVIIWLRDMRLMQGDEICLRYKGDLAPLWKGIGHVIKVPDNYGDEIAIELRSSVGAPVEVTHNFQVDFVWKSTSFDRMQSALKTFAVDETSVSGYIYHKLLGHEVEDVIIKCQLPKRFTAQGLPDLNHSQVYAVKTVLQRPLSLIQGPPGTGKTVTSATIVYHLARQGNGPVLVCAPSNIAVDQLTEKIHQTGLKVVRLCAKSREAIDSPVSFLALHNQIRNMDSMPELQKLQQLKDETGELSSADEKRYRALKRTAERELLMNADVICCTCVGAGDPRLAKMQFRSILIDESTQATEPECMVPVVLGAKQLILVGDHCQLGPVVMCKKAAKAGLSQSLFERLVVLGIRPIRLQVQYRMHPALSAFPSNIFYEGSLQNGVTAADRVKKGFDFQWPQPDKPMFFYVTQGQEEIASSGTSYLNRTEAANVEKITTKLLKAGAKPDQIGIITPYEGQRSYLVQYMQFSGSLHTKLYQEVEIASVDAFQGREKDFIILSCVRANEHQGIGFLNDPRRLNVALTRARYGVIIVGNPKALSKQPLWNHLLNYYKEQKVLVEGPLNNLRESLMQFSKPRKLVNTINPGARFMTTAMYDAREAIIPGSVYDRSSQGRPSSMYFQTHDQIGMISAGPSHVAAMNIPIPFNLVMPPMPPPGYFGQANGPAAGRGTPKGKTGRGGRQKNRFGLPGPSQTNLPNSQASQDVASQPFSQGALTQGYISMSQPSQMSQPGLSQPELSQDSYLGDEFKSQIDVALSQDSTYQGERAYQHGGVTGLSQY
- binding [3]: binds
- binding [2]: binds

Like-named read-outs stand apart in the source and are kept apart here. These are yes or no findings as the source states them, for the method shown. Binding seen in cells or lysates may run through a third protein. A yes stands for co-enrichment or nearness to the bait. Other partners may have been found. Tags and fused reporters may be left off the sequences shown.
